Reference: the supplement of paper PMC10849652
The other results are listed elsewhere or left out.

By UniProt entry, the sequences of proteins in these tests, tags left out. Where a name states a change or a piece, a line headed by the entry shows the natural chain unless it says otherwise.
UniProt P04844: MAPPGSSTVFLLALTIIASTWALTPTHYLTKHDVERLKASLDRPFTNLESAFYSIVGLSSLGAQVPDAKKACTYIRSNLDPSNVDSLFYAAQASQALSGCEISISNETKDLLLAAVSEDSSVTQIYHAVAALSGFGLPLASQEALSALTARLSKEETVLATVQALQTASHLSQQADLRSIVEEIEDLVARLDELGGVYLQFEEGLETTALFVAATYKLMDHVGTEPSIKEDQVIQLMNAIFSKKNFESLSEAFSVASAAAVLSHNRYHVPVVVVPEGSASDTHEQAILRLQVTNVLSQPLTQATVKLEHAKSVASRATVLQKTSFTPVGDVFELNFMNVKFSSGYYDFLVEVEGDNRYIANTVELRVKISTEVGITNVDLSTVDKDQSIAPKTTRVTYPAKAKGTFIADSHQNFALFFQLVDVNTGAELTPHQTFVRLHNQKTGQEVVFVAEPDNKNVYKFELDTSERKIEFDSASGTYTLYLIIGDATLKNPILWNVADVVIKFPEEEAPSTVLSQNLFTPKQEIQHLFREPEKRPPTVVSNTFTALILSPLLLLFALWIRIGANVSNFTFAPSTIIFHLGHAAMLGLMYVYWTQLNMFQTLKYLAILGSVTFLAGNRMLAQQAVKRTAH
UniProt P27694, whole entry, looked up: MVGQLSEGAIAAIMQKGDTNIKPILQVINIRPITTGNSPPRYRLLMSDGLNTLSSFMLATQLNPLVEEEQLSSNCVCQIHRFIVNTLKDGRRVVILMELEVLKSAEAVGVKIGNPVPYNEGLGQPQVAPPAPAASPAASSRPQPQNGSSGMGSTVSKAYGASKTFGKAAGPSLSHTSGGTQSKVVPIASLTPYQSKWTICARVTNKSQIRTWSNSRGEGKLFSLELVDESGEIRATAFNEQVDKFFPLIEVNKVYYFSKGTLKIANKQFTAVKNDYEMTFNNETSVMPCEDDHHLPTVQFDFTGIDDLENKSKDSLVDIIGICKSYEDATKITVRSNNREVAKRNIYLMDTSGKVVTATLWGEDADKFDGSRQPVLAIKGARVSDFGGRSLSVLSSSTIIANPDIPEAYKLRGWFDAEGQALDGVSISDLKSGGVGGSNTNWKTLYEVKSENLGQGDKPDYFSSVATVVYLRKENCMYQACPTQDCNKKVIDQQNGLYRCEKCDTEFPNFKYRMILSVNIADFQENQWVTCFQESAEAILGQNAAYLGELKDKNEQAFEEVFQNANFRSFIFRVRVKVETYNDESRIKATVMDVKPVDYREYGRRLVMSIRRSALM
UniProt Q96S38: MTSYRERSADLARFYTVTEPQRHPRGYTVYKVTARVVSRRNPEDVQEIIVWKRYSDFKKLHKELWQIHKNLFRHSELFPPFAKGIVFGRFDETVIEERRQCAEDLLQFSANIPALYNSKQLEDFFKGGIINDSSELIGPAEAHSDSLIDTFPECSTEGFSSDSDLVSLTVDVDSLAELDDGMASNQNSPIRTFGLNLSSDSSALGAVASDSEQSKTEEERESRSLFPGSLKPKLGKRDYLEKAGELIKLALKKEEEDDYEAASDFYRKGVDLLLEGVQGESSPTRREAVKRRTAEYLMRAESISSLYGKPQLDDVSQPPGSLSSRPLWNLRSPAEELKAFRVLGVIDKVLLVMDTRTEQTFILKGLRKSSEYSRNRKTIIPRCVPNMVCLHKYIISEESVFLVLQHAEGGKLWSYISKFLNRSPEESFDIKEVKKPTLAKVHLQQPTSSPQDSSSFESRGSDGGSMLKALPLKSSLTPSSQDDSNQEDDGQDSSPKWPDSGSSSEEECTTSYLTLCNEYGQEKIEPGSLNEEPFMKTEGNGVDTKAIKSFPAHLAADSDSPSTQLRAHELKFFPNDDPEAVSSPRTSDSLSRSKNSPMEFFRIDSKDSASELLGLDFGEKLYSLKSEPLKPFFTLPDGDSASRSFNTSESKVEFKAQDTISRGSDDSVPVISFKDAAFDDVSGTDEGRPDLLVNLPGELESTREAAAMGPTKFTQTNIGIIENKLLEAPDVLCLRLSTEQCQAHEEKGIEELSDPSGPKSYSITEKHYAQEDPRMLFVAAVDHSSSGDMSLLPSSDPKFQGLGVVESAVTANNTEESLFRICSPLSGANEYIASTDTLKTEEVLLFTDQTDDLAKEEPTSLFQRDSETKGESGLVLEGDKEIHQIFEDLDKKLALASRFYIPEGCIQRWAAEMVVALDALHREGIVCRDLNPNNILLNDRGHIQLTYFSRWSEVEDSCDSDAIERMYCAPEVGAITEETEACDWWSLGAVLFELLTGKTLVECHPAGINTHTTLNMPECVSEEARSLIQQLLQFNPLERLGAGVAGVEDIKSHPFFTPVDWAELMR
UniProt Q01974, whole entry, looked up: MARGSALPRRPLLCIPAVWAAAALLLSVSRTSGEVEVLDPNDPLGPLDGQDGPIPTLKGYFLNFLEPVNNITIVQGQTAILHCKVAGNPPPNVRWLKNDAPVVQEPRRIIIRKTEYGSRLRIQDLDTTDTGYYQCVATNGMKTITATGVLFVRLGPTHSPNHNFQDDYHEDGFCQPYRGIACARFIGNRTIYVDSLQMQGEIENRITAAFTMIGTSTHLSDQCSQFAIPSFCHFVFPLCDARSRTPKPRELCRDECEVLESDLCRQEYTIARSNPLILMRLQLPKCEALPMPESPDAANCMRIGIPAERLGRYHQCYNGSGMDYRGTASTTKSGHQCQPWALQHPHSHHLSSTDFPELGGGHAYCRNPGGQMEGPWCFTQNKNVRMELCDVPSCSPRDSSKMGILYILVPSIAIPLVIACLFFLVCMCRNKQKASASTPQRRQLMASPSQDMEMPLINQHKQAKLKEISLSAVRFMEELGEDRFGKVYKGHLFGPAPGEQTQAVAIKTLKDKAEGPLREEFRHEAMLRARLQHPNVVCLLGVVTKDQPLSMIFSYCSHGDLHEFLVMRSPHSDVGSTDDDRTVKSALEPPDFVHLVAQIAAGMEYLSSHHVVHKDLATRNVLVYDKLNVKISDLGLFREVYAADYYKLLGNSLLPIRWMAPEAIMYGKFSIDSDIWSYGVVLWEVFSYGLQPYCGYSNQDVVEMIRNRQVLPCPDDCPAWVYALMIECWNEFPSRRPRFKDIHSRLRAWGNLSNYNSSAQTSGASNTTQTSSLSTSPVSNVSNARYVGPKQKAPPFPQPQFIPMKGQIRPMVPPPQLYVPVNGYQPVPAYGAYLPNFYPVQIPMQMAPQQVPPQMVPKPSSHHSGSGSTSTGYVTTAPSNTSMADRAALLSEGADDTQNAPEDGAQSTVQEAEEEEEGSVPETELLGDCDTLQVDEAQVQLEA
UniProt Q7LG56, whole entry, looked up: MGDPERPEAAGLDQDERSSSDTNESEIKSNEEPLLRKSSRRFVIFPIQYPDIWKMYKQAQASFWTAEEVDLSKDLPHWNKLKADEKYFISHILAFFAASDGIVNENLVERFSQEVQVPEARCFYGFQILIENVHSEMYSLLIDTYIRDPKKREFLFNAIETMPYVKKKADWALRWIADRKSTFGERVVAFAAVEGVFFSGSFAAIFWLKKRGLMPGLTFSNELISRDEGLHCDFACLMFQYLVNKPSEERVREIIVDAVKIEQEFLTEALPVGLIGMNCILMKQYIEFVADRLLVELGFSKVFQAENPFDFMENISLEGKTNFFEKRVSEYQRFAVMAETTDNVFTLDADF
UniProt P35244: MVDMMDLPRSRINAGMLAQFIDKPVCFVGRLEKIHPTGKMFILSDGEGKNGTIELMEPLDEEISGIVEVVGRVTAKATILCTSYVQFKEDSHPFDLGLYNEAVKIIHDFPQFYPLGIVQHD
UniProt Q9BUL9: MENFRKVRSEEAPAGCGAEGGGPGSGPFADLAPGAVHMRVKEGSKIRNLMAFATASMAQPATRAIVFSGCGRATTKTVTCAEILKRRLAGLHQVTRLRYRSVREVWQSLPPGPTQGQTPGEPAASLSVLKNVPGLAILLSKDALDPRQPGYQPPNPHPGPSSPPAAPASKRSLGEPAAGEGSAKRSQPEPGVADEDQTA
UniProt P15927: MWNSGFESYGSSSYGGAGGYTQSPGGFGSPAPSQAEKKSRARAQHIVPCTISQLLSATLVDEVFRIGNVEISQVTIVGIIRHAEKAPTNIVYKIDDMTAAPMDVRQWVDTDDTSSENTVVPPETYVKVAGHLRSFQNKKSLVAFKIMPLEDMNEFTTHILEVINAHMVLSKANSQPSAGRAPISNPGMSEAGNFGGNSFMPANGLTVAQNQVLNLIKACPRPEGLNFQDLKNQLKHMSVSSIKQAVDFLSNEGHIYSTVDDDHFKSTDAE
UniProt Q8TA86: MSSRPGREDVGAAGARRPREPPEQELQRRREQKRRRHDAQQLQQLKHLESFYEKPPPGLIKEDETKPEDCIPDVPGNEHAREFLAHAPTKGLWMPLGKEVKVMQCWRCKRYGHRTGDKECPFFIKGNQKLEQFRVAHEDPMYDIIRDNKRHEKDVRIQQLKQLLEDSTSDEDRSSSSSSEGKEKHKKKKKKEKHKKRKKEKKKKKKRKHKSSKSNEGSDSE
UniProt Q9UBF6, whole entry, looked up: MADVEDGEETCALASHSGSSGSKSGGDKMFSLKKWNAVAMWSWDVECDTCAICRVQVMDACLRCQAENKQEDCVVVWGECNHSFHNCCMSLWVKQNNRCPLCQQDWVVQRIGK
UniProt P62070: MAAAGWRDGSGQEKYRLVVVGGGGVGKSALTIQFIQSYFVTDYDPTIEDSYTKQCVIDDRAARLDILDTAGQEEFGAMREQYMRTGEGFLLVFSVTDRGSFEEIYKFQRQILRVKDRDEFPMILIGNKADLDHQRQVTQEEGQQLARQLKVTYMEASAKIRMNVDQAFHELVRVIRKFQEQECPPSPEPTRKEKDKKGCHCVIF
UniProt Q92901: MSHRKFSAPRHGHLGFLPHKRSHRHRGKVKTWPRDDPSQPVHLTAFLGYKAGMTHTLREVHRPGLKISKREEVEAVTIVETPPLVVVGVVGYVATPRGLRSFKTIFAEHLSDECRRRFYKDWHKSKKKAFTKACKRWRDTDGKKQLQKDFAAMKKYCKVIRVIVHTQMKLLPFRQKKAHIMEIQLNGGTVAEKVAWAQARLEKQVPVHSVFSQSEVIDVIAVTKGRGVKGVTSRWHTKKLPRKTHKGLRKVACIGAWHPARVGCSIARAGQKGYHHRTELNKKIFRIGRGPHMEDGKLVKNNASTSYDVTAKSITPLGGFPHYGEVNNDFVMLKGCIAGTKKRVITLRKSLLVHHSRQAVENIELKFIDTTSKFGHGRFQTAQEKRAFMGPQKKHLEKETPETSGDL
UniProt P60602: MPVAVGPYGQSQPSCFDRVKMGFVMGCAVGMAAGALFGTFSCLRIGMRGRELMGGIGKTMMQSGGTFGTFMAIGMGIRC
UniProt O75818: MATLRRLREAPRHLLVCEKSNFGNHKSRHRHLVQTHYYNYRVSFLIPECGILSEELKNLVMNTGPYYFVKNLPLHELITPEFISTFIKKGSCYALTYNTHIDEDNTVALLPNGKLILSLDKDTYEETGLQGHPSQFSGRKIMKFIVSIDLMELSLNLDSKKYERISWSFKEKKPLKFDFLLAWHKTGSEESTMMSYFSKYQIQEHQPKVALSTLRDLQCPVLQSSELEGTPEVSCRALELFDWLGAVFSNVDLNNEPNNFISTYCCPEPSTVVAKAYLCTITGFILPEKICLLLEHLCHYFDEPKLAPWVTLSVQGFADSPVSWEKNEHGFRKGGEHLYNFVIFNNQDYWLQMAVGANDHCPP

Compound: O=C(O)c1ccc2c(c1)nc(Nc1cccc(Cl)c1)c1ccncc12 [silmitasertib]
Assay: log2 fold change, soluble protein after heating vs DMSO (PISA); higher = thermal stabilisation; K562 cells, 10 uM, 30 min; active = over 0.2 and 3.5 SD of the protein, either way, in both replicates (recomputed)
Outline: (§1)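 K562 cells at 2×10^6 cells/mL were given 10 μM compound for 30 min. Aliquots then went through 3 min of heating across 48°C-58°C, were pooled, and were extracted in PBS with 0.5% NP-40 at 4°C, and the supernatant after 21,000xg for 90 min was quantified by TMTpro 16plex LC-MS/MS with channel sums equalised. Thermal stability relative to control samples, from duplicates, is given as log2 fold change.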

log2 fold change, inactive:
RPN2 (UniProt P04844) 0.013
RPA1 (UniProt P27694) -0.02
RPS6KC1 (UniProt Q96S38) 0.117
ROR2 (UniProt Q01974) -0.027
RPL7A (UniProt P62424) 0.2
RPL26L1 (UniProt Q9UNX3) -0.048
RRM2B isoform 6 (UniProt Q7LG56) -0.003
RPS6 (UniProt P62753) 0.075
RPS7, A0A2R8Y623 -0.194
RPA3 (UniProt P35244) -0.007
RPP25 (UniProt Q9BUL9) 0.02
RPA2 isoform 3 (UniProt P15927) -0.014
RPS19 (UniProt P39019) -0.014
RPS20 isoform 2 (UniProt P60866) -0.006
RPL13A (UniProt P40429) 0.242
RP9 (UniProt Q8TA86) 0.104
RNF7 (UniProt Q9UBF6) 0.061
RPL3 (UniProt P39023) 0.208
RPS16 (UniProt P62249) -0.097
RRAS2 isoform 4 (UniProt P62070) 0.048
RPS2 (UniProt P15880) 0.01
RPL3L (UniProt Q92901) 0.237
RPL22 (UniProt P35268) 0.067
RPS29 (UniProt P62273) -0.079
RPL19 (UniProt P84098) 0.123
RPL14 (UniProt P50914) 0.162
RPL35 (UniProt P42766) 0.09
ROMO1 (UniProt P60602) 0.032
RPL37 (UniProt P61927) 0.141
RPL37A (UniProt P61513) 0.085
RPP40 (UniProt O75818) 0.019
RPL8 (UniProt P62917) 0.16

Compound: O=C1NC(=O)C(c2cnc3ccccn23)=C1c1cn2c3c(cc(F)cc13)CN(C(=O)N1CCCCC1)CC2
Assay: as above
Outline: as §1

log2 fold change, inactive:
RPN2 (UniProt P04844) -0.013
RPA1 (UniProt P27694) -0.046
RPS6KC1 (UniProt Q96S38) -0.019
ROR2 (UniProt Q01974) 0.012
RPL7A (UniProt P62424) 0.228
RPL26L1 (UniProt Q9UNX3) 0.216
RRM2B isoform 6 (UniProt Q7LG56) -0.087
RPS6 (UniProt P62753) 0.176
RPA3 (UniProt P35244) -0.164
RPP25 (UniProt Q9BUL9) 0.04
RPA2 isoform 3 (UniProt P15927) -0.121
RPS19 (UniProt P39019) 0.051
RPS20 isoform 2 (UniProt P60866) 0.072
RPL13A (UniProt P40429) 0.296
RP9 (UniProt Q8TA86) 0.164
RNF7 (UniProt Q9UBF6) -0.012
RPL3 (UniProt P39023) 0.273
RPS16 (UniProt P62249) 0.093
RRAS2 isoform 4 (UniProt P62070) -0.01
RPS2 (UniProt P15880) 0.086
RPL3L (UniProt Q92901) 0.303
RPL22 (UniProt P35268) 0.131
RPS29 (UniProt P62273) 0.118
RPL19 (UniProt P84098) 0.254
RPL14 (UniProt P50914) 0.33
RPL35 (UniProt P42766) 0.169
ROMO1 (UniProt P60602) 0.062
RPL37A (UniProt P61513) 0.171
RPP40 (UniProt O75818) 0.076
RPL8 (UniProt P62917) 0.312

Compound: c1cc(OCCN2CCCCC2)cc(-c2n[nH]c3ccc(-c4nnc[nH]4)cc23)c1
Assay: as above
Outline: as §1

log2 fold change, inactive:
RPN2 (UniProt P04844) -0.031
RPA1 (UniProt P27694) 0.006
RPS6KC1 (UniProt Q96S38) 0.014
ROR2 (UniProt Q01974) -0.151
RPL7A (UniProt P62424) -0.281
RPL26L1 (UniProt Q9UNX3) -0.165
RRM2B isoform 6 (UniProt Q7LG56) -0.016
RPS6 (UniProt P62753) -0.098
RPS7, A0A2R8Y623 0.959
RPA3 (UniProt P35244) -0.071
RPP25 (UniProt Q9BUL9) -0.081
RPA2 isoform 3 (UniProt P15927) -0.055
RPS19 (UniProt P39019) -0.107
RPS20 isoform 2 (UniProt P60866) -0.1
RPL13A (UniProt P40429) -0.397
RP9 (UniProt Q8TA86) -0.185
RNF7 (UniProt Q9UBF6) 0.096
RPL3 (UniProt P39023) -0.372
RPS16 (UniProt P62249) -0.119
RRAS2 isoform 4 (UniProt P62070) 0.013
RPS2 (UniProt P15880) -0.189
RPL3L (UniProt Q92901) -0.456
RPL22 (UniProt P35268) -0.19
RPS29 (UniProt P62273) 0.093
RPL19 (UniProt P84098) -0.193
RPL14 (UniProt P50914) -0.29
RPL35 (UniProt P42766) -0.236
ROMO1 (UniProt P60602) -0.042
RPL37 (UniProt P61927) -0.097
RPL37A (UniProt P61513) -0.328
RPP40 (UniProt O75818) -0.145
RPL8 (UniProt P62917) -0.311
